These are yes or no findings as the source states them, for the method shown. Where a sequence is shown, tags or fusion partners need not be part of it.
Target: T1, FLAG-tagged human IRF3 (human) (UniProt Q14653)
T1 sequence: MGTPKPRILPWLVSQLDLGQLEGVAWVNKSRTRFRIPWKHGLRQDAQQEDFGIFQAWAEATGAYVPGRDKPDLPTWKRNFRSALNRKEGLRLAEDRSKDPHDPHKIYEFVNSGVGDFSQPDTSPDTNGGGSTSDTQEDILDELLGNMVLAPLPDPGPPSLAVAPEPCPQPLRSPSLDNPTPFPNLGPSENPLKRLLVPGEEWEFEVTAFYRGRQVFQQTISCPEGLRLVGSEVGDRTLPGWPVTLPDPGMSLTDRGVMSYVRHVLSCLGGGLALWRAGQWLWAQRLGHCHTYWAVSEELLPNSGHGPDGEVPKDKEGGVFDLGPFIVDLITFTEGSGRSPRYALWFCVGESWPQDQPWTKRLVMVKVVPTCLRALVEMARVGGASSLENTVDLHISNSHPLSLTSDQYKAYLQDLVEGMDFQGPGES
Experiment: pull-down; cell-free interaction assay: FLAG proteins from separately transfected 293T lysates immunoprecipitated on FLAG beads and washed, then HA-peptide-eluted (partially purified) HA-TRIM40 from 293T added; both purified

binding: no binding
B1: human HA-TRIM40 (protein, UniProt Q6P9F5 1-258)
chain: MIPLQKDNQEEGVCPICQESLKEAVSTNCGHLFCRVCLTQHVEKASASGVFCCPLCRKPCSEEVLGTGYICPNHQKRVCRFCEESRLLLCVECLVSPEHMSHHELTIENALSHYKERLNRRSRKLRKDIAELQRLKAQQEKKLQALQFQVDHGNHRLEAGPESQHQTREQLGALPQQWLGQLEHMPAEAARILDISRAVTQLRSLVIDLERTAKELDTNTLKNAGDLLNRSAPQKLEVIYPQLEKGVSELLLQPPQKL

Reference: publication PMC10674255
